The results in this text go back to paper PMC4417206.

A negative result means that nothing was seen under these conditions. At least one verdict was read from the data and is not stated in words by the source. Protein sequences can lack the tags named with them.

The data set concerns the target T1, N-ht-CRP (cAMP receptor protein) (Shewanella oneidensis MR-1) (UniProt Q8EJ49).
T1 sequence (looked up): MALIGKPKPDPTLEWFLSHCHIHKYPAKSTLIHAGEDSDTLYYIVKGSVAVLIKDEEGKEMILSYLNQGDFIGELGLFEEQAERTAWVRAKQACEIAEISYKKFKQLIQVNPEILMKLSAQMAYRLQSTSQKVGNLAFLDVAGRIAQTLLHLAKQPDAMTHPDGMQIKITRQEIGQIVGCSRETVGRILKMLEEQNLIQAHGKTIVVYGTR
Kind of data set: EMSA. The conditions noted are these: no cAMP; 10 mM Tris-HCl pH 7.6, 0.5 mM EDTA, 100 mM KCl, 50 ug/mL BSA, 50 ug/mL poly(dI-dC), 50 uM cAMP, 10% glycerol, 2 nM probe, 0-200 ng CRP in 20 uL, on ice 30 min; recombinant protein; residues 1-211; protein details: N-terminal His tag (pET-28a(+), NdeI/BamHI); label: 5'-Cy3; probe letters rebuilt from the primers and the genome. A general note: Mobility shift assays separate free from complexed probe on a gel.

For “TCCACCTCACTATCTGTTGTTTTTTTGCTCTCAATTTGTTTTTCCCTTGTGGTTTAACTACCTCTTTAGAAATAGAAAGATCCAAGTCACACATTAGCAAAGGCTTAGAAGATTTTAACGGCATGTTGGGTTAGCCTTTCCTTGGGGAATTCTATTTCCAGCATCCACTTAAGTCGCTTCTAGTGATCAAATACACAGACATAGAATCTGTTGGCGCTAGAGCATAGCGGTTAAGCAATGCCAAACCTATGCAGGGAAAA (double strand) [PBmtrC1]”, the binding result was “no binding”.
